Reference: paper PMC10185561, “RagD auto-activating mutations impair MiT/TFE activity in kidney tubulopathy and cardiomyopathy syndrome” (Nature Communications, 2023)
Results are given in words; binding and its absence hold for the method and conditions named. Binding seen in cells or lysates may run through a third protein. Some binding calls cover weakened binding; strength is not graded here.

By UniProt entry, the sequences of proteins in these tests, tags left out. Where a name states a change or a piece, a line headed by the entry shows the natural chain unless it says otherwise. Chains listed by the source or under a name are the forms on record and can include a tag or linker.
UniProt P19484: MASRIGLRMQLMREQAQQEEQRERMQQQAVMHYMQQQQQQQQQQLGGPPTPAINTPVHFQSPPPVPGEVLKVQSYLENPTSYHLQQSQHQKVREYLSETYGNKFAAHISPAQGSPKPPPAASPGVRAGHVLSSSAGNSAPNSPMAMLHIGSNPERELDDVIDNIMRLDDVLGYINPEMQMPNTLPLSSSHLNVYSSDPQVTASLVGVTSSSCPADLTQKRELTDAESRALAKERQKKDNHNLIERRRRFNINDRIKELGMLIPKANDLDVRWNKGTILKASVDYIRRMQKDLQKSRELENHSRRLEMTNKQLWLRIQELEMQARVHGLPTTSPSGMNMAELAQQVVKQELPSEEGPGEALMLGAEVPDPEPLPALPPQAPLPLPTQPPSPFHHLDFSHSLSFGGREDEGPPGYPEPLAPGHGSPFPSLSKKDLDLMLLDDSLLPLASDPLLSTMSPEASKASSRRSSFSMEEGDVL
HA-GST-RagD P119L (Q9NQL2-1, form named): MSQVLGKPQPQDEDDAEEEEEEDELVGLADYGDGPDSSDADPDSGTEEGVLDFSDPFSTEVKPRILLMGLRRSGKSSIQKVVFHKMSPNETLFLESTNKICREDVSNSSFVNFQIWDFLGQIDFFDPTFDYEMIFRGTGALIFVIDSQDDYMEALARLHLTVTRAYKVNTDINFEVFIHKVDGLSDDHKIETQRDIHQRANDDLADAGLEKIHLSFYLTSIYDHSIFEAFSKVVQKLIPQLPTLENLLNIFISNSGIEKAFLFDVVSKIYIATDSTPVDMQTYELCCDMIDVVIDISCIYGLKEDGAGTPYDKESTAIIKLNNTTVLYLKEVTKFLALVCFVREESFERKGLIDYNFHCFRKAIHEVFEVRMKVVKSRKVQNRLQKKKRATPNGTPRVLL
HA-GST-RagD T97P (Q9NQL2-1, form named): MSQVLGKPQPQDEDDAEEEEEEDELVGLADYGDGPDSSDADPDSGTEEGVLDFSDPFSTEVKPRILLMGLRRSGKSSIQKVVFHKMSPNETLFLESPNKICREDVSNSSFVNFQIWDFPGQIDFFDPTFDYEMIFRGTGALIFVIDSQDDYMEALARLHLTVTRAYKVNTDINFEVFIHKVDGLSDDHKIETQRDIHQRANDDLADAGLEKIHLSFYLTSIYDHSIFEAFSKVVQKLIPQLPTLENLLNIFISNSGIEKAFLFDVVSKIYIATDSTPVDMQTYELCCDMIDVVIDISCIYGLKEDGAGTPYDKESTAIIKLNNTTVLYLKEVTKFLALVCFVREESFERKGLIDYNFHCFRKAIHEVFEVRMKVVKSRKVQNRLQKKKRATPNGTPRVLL
HA-GST-RagD I221K (Q9NQL2-1, form named): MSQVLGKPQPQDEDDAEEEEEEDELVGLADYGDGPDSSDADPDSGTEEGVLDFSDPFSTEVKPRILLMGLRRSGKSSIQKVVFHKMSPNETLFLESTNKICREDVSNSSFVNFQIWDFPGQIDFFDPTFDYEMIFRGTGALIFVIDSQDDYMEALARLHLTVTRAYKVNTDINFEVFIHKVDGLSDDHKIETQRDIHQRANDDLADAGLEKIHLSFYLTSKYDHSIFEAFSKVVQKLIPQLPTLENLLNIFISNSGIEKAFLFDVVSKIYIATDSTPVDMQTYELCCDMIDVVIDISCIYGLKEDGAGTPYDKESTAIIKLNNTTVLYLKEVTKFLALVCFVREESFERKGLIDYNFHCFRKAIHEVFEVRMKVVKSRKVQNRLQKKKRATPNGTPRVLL
HA-GST-RagD P88L (Q9NQL2-1, form named): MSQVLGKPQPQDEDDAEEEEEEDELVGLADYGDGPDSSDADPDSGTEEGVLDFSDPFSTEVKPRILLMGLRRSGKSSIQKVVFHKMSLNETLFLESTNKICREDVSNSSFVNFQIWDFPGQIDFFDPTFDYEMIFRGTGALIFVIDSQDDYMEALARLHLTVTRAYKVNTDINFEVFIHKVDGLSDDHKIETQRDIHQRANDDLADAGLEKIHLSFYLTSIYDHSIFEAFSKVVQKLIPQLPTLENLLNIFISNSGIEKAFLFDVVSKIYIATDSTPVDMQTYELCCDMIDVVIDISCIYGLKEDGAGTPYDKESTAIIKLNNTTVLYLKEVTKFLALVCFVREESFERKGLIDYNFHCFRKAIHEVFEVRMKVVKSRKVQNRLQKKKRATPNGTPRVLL
HA-GST-RagD S76L (Q9NQL2-1, form named): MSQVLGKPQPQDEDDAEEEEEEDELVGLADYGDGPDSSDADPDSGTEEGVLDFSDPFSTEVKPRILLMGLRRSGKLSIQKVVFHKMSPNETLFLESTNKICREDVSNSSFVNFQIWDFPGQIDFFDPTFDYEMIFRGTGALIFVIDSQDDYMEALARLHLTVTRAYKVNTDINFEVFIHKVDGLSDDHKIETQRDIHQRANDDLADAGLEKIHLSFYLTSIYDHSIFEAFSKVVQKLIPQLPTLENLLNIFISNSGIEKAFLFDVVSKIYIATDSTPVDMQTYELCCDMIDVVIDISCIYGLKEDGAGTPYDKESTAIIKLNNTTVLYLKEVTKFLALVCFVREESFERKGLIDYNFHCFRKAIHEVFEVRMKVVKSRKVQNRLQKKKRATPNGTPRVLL

Molecular target: FLAG-TFEB (UniProt P19484)
Assay: co-IP; HeLa FLCN KO cells transfected with TFEB-FLAG (bait), RagD-HA-GST WT or mutants and an equimolar amount of RagA-HA-GST; NP-40 lysis buffer (50 mM Tris-HCl pH 7.5, 100 mM NaCl, 0.5% NP-40); FLAG M2 beads, 4 °C, 2 h; immunoblot

binding | Substance
binds | HA-GST-RagD P119L (from UniProt Q9NQL2-1 1-400)
binds | HA-GST-RagD T97P (from UniProt Q9NQL2-1 1-400)
binds | HA-GST-RagD I221K (from UniProt Q9NQL2-1 1-400)
binds | HA-GST-RagD P88L (from UniProt Q9NQL2-1 1-400)
binds | HA-GST-RagD S76L (from UniProt Q9NQL2-1 1-400)
